Measurements as given in PubChem BioAssay AID248 (DTP/NCI, 2004).
The list does not hold the whole screen: it is rich in T/C values a quarter to a half above the control, in often repeated tests (any T/C) and in doses without a T/C. Other doses and runs of a compound stand elsewhere. T/C: endpoint of the treated group in % of that of the vehicle group. Some doses have a count of surviving animals in place of a T/C: the source holds a T/C of zero for them, seemingly a mark for toxic or unscored doses. Some doses without a T/C left all or most animals alive at the check, yet need not have been tolerated: the source hardly ever lists a survival T/C far under the control, and the zero likely stands for such cases as well. Survivors were counted at the toxicity check, usually on the fifth day, unless a day is given; later deaths do not show. Schedule codes are those of the source, read here as Q, the interval in days (D) or hours (H), X, the number of doses. Some schedule codes hold Z or #, which are not explained here. Where survival is the endpoint, the PubChem record calls one and a half times the control and up active, and a quarter to a half above the control has no call in these data; cut-offs in other NCI protocols can differ.

Tested on: L1210 leukemia ip in BDF1 mice, survival T/C
Assay: NCI In Vivo Anticancer Drug Screen. Data for tumor model L1210 Leukemia (intraperitoneal) in B6D2F1 (BDF1) mice
Conditions: T/C endpoint: mean survival time, higher T/C = longer survival

## CN(C)N=Nc1ccccc1C(=O)O
dose: 6.25 mg/kg/injection, schedule: Q01DX009 (ip), vehicle: Klucel (hydroxypropylcellulose) (HPC)
  survivor count: 6 of 6
dose: 12.5 mg/kg/injection, schedule: Q01DX009 (ip), vehicle: Klucel (hydroxypropylcellulose) (HPC)
  survivor count: 6 of 6
dose: 25.0 mg/kg/injection, schedule: Q01DX009 (ip), vehicle: Klucel (hydroxypropylcellulose) (HPC)
  survivor count: 6 of 6
dose: 25.0 mg/kg/injection, schedule: Q01DX009 (ip), vehicle: saline with Tween-80
  T/C: 135 % of control
dose: 50.0 mg/kg/injection, schedule: Q01DX009 (ip), vehicle: Klucel (hydroxypropylcellulose) (HPC)
  survivor count: 4 of 6
dose: 50.0 mg/kg/injection, schedule: Q01DX009 (ip), vehicle: saline with Tween-80
  survivor count: 1 of 6

## O=C(Nc1cc(S(=O)(=O)O)cc2cc(S(=O)(=O)O)c(N=Nc3ccc([As](=O)(O)O)cc3)c(O)c12)c1ccc([N+](=O)[O-])cc1
dose: 100.0 mg/kg/injection, schedule: Q04DX003 (ip), vehicle: saline sonified
  survivor count: 3 of 6
dose: 400.0 mg/kg/injection, schedule: Q04DX003 (ip), vehicle: saline sonified
  survivor count: 3 of 6

## CN1CSC(=S)N(C)C1
dose: 200.0 mg/kg/injection, schedule: Q04DX003 (ip), vehicle: Klucel (hydroxypropylcellulose) (HPC)
  survivor count: 2 of 6
dose: 400.0 mg/kg/injection, schedule: Q04DX003 (ip), vehicle: Klucel (hydroxypropylcellulose) (HPC)
  survivor count: 0 of 6

## O=[N+]([O-])c1cc2c(cc1Br)nc(Cl)c1cc(Br)ccc12
dose: 400.0 mg/kg/injection, schedule: Q01DX009 (ip), vehicle: Klucel (hydroxypropylcellulose) (HPC)
  survivor count: 3 of 6

## O=c1[nH]cncc1CCC1OCCO1
dose: 400.0 mg/kg/injection, schedule: Q01DX009 (ip), vehicle: saline
  survivor count: 0 of 6

## O=C(Nc1cccc(C2=NCCN2)c1)c1ccc2cc(C(=O)Nc3cccc(C4=NCCN4)c3)ccc2c1
dose: 60.0 mg/kg/injection, schedule: Q01DX Z (ip), vehicle: carboxymethylcellulose (CMC)
  T/C: 137 % of control
dose: 125.0 mg/kg/injection, schedule: Q01DX Z (ip), vehicle: water
  survivor count: 0 of 6
dose: 250.0 mg/kg/injection, schedule: Q01DX Z (ip), vehicle: water
  survivor count: 0 of 6
dose: 500.0 mg/kg/injection, schedule: Q01DX Z (ip), vehicle: water
  survivor count: 0 of 6

## O=S(=O)(C#Cc1ccccc1)c1ccccc1
dose: 200.0 mg/kg/injection, schedule: Q04DX002 (ip), vehicle: Klucel (hydroxypropylcellulose) (HPC)
  survivor count: 1 of 3
dose: 400.0 mg/kg/injection, schedule: Q04DX002 (ip), vehicle: Klucel (hydroxypropylcellulose) (HPC)
  survivor count: 3 of 3

## [Cl][Pt+2][Cl].[NH-]CC1CCCC[N-]1 (configuration not stated)
dose: 25.0 mg/kg/injection, schedule: Q04DX003 (ip), vehicle: saline
  T/C: 141 % of control
dose: 50.0 mg/kg/injection, schedule: Q04DX003 (ip), vehicle: saline
  T/C: 131 % of control

## CC1(C)N=C(N)N=C(N)N1c1cccc(Br)c1
dose: 5.0 mg/kg/injection, schedule: Q01DX Z (ip), vehicle: saline
  T/C: 125 % of control
dose: 10.0 mg/kg/injection, schedule: Q01DX Z (ip), vehicle: saline
  T/C: 139 % of control
dose: 11.0 mg/kg/injection, schedule: Q01DX Z (ip), vehicle: saline
  T/C: 138 % of control
dose: 15.0 mg/kg/injection, schedule: Q01DX Z (ip), vehicle: methylcellulose (MC)
  T/C: 128 % of control
dose: 16.0 mg/kg/injection, schedule: Q01DX Z (ip), vehicle: carboxymethylcellulose (CMC)
  T/C: 128 % of control
dose: 22.0 mg/kg/injection, schedule: Q01DX Z (ip), vehicle: methylcellulose (MC)
  T/C: 130 % of control
dose: 25.0 mg/kg/injection, schedule: Q01DX Z (ip), vehicle: carboxymethylcellulose (CMC)
  T/C: 141 % of control
dose: 33.0 mg/kg/injection, schedule: Q01DX Z (ip), vehicle: methylcellulose (MC)
  T/C: 143 % of control
dose: 37.0 mg/kg/injection, schedule: Q01DX Z (ip), vehicle: saline
  T/C: 141 % of control
dose: 100.0 mg/kg/injection, schedule: Q01DX Z (ip), vehicle: saline
  survivor count: 6 of 6
dose: 200.0 mg/kg/injection, schedule: Q01DX Z (ip), vehicle: saline
  survivor count: 0 of 6
dose: 300.0 mg/kg/injection, schedule: Q01DX001 (ip), vehicle: other
  survivor count: 0 of 6
